Source: the supplement of paper PMC12009310
Counter-ions that a name gives are not always drawn. ± gives the standard deviation of the averaged measurements. Some of the results follow. Part of the spread comes from offsets between plates or batches.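 The cells are a mouse kidney inner medullary collecting duct line, silenced either for the ciliary gene Rpgrip1l or with a non-targeting control siRNA.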

Tests used:
[1] = tested on: mIMCD3; test: robust z score of cell number vs plate controls; higher = more cells (less cytotoxic); details: 10 µM, 48 h
[2] = tested on: mIMCD3; test: robust z score of cilia incidence (% cells with single cilium) vs plate controls; higher = more ciliated cells; details: 10 µM; 48 h; siRNA: siScr
[3] = tested on: mIMCD3; test: robust z score of cilia incidence (% cells with single cilium) vs plate controls; higher = more ciliated cells (rescue of cilia loss); details: 10 µM; 48 h; siRNA: siRpgrip1l

SMILES | robust z score of cell number ([1]; siRNA: siRpgrip1l) | robust z score of cell number ([1]; siRNA: siScr) | robust z score of cilia incidence [2] | robust z score of cilia incidence [3]
CN(C)CCC=C1c2ccccc2COc2ccccc21 [Doxepin hydrochloride] | 2.74 ± 5 | -1.03 ± 2.5 | -0.729 ± 4.2 | -9.15 ± 5
O=C1NC(=O)c2cc(Nc3ccccc3)c(Nc3ccccc3)cc21 | -28.7 ± 26 | -12.9 ± 12 | -11.7 ± 4 | -18.1 ± 10
CCCc1c(OCCCOc2ccc(OCC(=O)O)cc2)ccc(C(C)=O)c1O | -24.6 ± 24 | -21.8 ± 14 | 1.36 ± 3.4 | -16.9 ± 3.6
Nc1nc(NCC2CCC(CNS(=O)(=O)c3cccc4ccccc34)CC2)nc2ccccc12 (stereo not given) | -2.69 ± 4.9 | -1.15 ± 3.7 | 1.54 ± 0.62 | -4.79 ± 4.5
CCC(=O)O[C@]1(C(=O)SCF)[C@H](C)C[C@H]2[C@@H]3C[C@H](F)C4=CC(=O)C=C[C@]4(C)[C@@]3(F)[C@@H](O)C[C@@]21C [Fluticasone propionate] | -12.4 ± 7 | -16.8 ± 15 | -2.36 ± 4.9 | -15 ± 7.5
COc1cc(C[C@H]2C(=O)OC[C@@H]2Cc2ccc(OC)c(OC)c2)ccc1O [Arctigenin] | -19.8 ± 15 | -21.7 ± 11 | -32.9 ± 40 | -30.6 ± 4.9
CCc1cc2c(c(CC)n1)CCC(=O)N2Cc1ccc(-c2ccccc2-c2nn[nH]n2)cc1 [ZD 7155 hydrochloride] | -9.46 ± 6.5 | -1.92 ± 1.5 | -0.352 ± 0.31 | -16.3 ± 4.8
COc1ccc2[nH]c(C(=O)c3ccccc3)cc2c1 | -178 ± 200 | -41.5 ± 10 | -46.4 ± 13 | -538 ± 310
CCCn1c(=O)c(C)cn2nc(N)nc12 | -0.531 ± 0.51 | -1.51 ± 1.4 | 4.01 ± 5.9 | -27.8 ± 25
C=CCN1CCc2cc(O)c(O)cc2C(c2ccccc2)C1 (stereo not given) | -159 ± 170 | -42.3 ± 9.6 | -25.2 ± 9 | -338 ± 190
COc1ccc(-c2nc(-c3ccc(-c4cccc(Cl)c4)o3)[nH]c2-c2ccc(OC)cc2)cc1 [Neurodazine] | -50.1 ± 53 | -27.4 ± 24 | -4.27 | -18.8 ± 14
COC(=O)c1c(-c2cc(OC)c(OC)c(OC)c2)c2ccnc(OCc3ncccn3)c2c(=O)n1Cc1ccnc(C)c1 [T 0156 hydrochloride] | -8.14 ± 4.5 | -10.8 ± 0.85 | -17.9 ± 18 | -18.9 ± 3.1
O=C(/C=C/c1ccc(O)c(O)c1)O[C@H](Cc1ccc(O)c(O)c1)C(=O)O [Rosmarinic acid] | -11.8 ± 6.8 | -8.06 ± 12 | 0.799 ± 2 | -8.41 ± 1
O=C(O)C1(C(=O)O)CCC1.[NH2-].[NH2-].[Pt+2] [Carboplatin] | -3.82 ± 4.7 | -25.2 ± 30 | 0.905 ± 1.6 | -9.39 ± 0.23
Nc1nc(Nc2ccccc2)nc2c1ncn2[C@@H]1O[C@H](CO)[C@@H](O)[C@H]1O | -4.9 ± 3.7 | -2.44 ± 1.4 | -2 ± 4.5 | -12.9 ± 5.8
NCCCCNCCCN [Spermidine trihydrochloride] | -5.58 ± 0.2 | -3.05 ± 3.2 | -4.52 ± 4.1 | -10.6 ± 2
CC[C@H](C)C(=O)O[C@H]1CCC=C2C=C[C@H](C)[C@H](CC[C@@H]3C[C@@H](O)CC(=O)O3)[C@H]21 [Mevastatin] | -126 ± 140 | -38.2 ± 11 | -37.9 ± 17 | -510 ± 320
O=c1cc(N2CCOCC2)oc2c(-c3ccccc3)cccc12 | -26.3 ± 20 | -9.07 ± 1.5 | 0.331 ± 0.94 | -11.5 ± 6.4
CC(C)NCC(O)c1ccc2ccccc2c1 (stereo not given) [Pronethalol hydrochloride] | -2.43 ± 0.59 | -4.74 ± 0.33 | -0.158 ± 3.6 | -1.15 ± 0.98
Cc1ccccc1N1CCN(S(=O)(=O)C[C@]23CC[C@H](C[C@@H]2NC(=O)[C@@H](N)CCS(C)(=O)=O)C3(C)C)CC1 [L-368,899 hydrochloride] | -5.99 ± 3 | -24.6 ± 23 | -0.0671 ± 2 | -11.7 ± 3.5

SMILES | robust z score of cell number ([1]; siRNA: siRpgrip1l) | robust z score of cell number ([1]; siRNA: siScr) | robust z score of cilia incidence [2] | robust z score of cilia incidence [3]
COc1cc(N)c(Cl)cc1C(=O)NC1CCN(CCCOc2ccc(F)cc2)CC1OC (stereo not given) [Cisapride] | -12.3 ± 7 | -14.8 ± 6.7 | -69.2 ± 65 | -68.8 ± 47
O=C(O)c1cccnc1C(=O)O [Quinolinic acid] | 9.38 ± 16 | 9.16 ± 1.8 | 1.42 ± 1.8 | -4.88 ± 0.87
COc1ccc(C2CNC(=O)C2)cc1OC1CCCC1 (stereo not given) [Rolipram] | -3.36 ± 0.21 | 0.718 ± 1.1 | -0.382 ± 1.8 | -7.43 ± 0.38
Cn1cc(C(=O)OCC2CCN(CCNS(C)(=O)=O)CC2)c2ccccc21 | -108 ± 61 | -10.2 ± 3.8 | -9.35 ± 7.6 | -20.6 ± 8.2
COC(=O)C[C@](O)(CCCC(C)(C)O)C(=O)O[C@@H]1C(OC)=C[C@]23CCCN2CCc2cc4c(cc2[C@H]13)OCO4 [Homoharringtonine] | -61.7 ± 53 | -51.6 ± 1.6 | -78.5 ± 25 | -45.9 ± 1.5
O=C(O)c1ccc2cc(-c3ccc(O)c(C45CC6CC(CC(C6)C4)C5)c3)ccc2c1 | -184 ± 200 | -43.3 ± 11 | -45.8 ± 12 | -537 ± 300
CC(=N)NCCCC[C@H](N)C(=O)O [L-NIL hydrochloride] | -7.08 ± 7.4 | -0.068 ± 0.61 | 0.627 ± 0.27 | -13.6 ± 0.83
O=C1NC(c2cccc([N+](=O)[O-])c2)=CCN1c1ccccc1O [Icilin] | 1.19 ± 2 | -1.61 ± 0.2 | -0.226 ± 4 | -132 ± 120
Cc1ccc(/C=C2\CNC/C(=C\c3ccc(C)cc3)C2=O)cc1 | -32.7 ± 10 | -144 ± 110 | -63.2 ± 17 | -58 ± 6
OCC1OC(n2cnc3c(NC4CCCC4)nc(Cl)nc32)C(O)C1O (stereo not given) [2-Chloro-N6-cyclopentyladenosine] | -1.39 ± 0.94 | -2.59 ± 0.93 | -2.28 ± 1.3 | -19 ± 9.7
O=C1Cc2c([nH]c3ccc(Br)cc23)-c2ccccc2N1 [Kenpaullone] | -307 ± 220 | -40.5 ± 9.6 | -45.7 ± 2 | -31.4 ± 10
COc1cc2c(cc1OC)-c1c/c(=N\c3c(C)cc(C)cc3C)n(C)c(=O)n1CC2 [Trequinsin hydrochloride] | -22.5 ± 9.5 | -19.8 ± 2.9 | -36.9 ± 30 | -30.8 ± 17
COC(=O)C1=C(C)NC(C)=C(C(=O)OC(C)C)C1c1cccc2nonc12 (stereo not given) [Isradipine] | -16 ± 9.7 | -24.3 ± 20 | 1.06 ± 2.7 | -15.8 ± 8.4
CCc1cc(Cl)c(OC)c(C(=O)NC[C@@H]2CCCN2CC)c1O [Eticlopride hydrochloride] | -38.7 ± 34 | -40.6 ± 26 | -111 ± 53 | -122 ± 110
CC1C(=O)OC2C(O)C34C5CC(C(C)(C)C)C36C(OC(=O)C6O)OC4(C(=O)O5)C12O (stereo not given) [Ginkgolide B] | -4.44 ± 5.7 | -2.5 ± 4.2 | -0.423 ± 2.9 | -170 ± 140
CCCC1O[C@@H]2C[C@H]3[C@@H]4CCC5=CC(=O)C=C[C@]5(C)[C@H]4[C@@H](O)C[C@]3(C)[C@]2(C(=O)CO)O1 (stereo not given in full) [Budesonide] | -11.6 ± 3 | -79.7 ± 76 | -21.2 ± 11 | -21.4 ± 0.37
Cc1cc(C)c(/C=C2\C(=O)Nc3ccccc32)[nH]1 | -8.97 ± 7 | -1.32 ± 3.5 | 0.648 ± 1.4 | -5.05 ± 1.3
C1COC(NC(C2CC2)C2CC2)=N1 [Rilmenidine hemifumarate] | -0.977 ± 2.8 | -3.05 ± 0.73 | -0.666 ± 1.2 | -6.59 ± 0.67
CCS(=O)(=O)N(C)[C@H]1c2cc(C#N)ccc2OC(C)(C)[C@@H]1O (racemic) [Chromanol 293B] | -37.9 ± 49 | -1.51 ± 4.1 | 0.831 ± 0.23 | -4.84 ± 0.61
O=C(O)c1ccc(-c2ccc3cc(O)c(C45CC6CC(CC(C6)C4)C5)cc3c2)cc1 | -32.6 ± 10 | -142 ± 110 | -67.1 ± 15 | -58.8 ± 7.8

Given with tabs: entries from further up.
SMILES	robust z score of cell number ([1]; siRNA: siRpgrip1l)	robust z score of cell number ([1]; siRNA: siScr)	robust z score of cilia incidence [2]	robust z score of cilia incidence [3]
COc1cc(N)c(Cl)cc1C(=O)NC1CCN(CCCOc2ccc(F)cc2)CC1OC (stereo not given) [Cisapride]	-12.3 ± 7	-14.8 ± 6.7	-69.2 ± 65	-68.8 ± 47
O=C(O)c1ccc2cc(-c3ccc(O)c(C45CC6CC(CC(C6)C4)C5)c3)ccc2c1	-184 ± 200	-43.3 ± 11	-45.8 ± 12	-537 ± 300
COc1cc2c(cc1OC)-c1c/c(=N\c3c(C)cc(C)cc3C)n(C)c(=O)n1CC2 [Trequinsin hydrochloride]	-22.5 ± 9.5	-19.8 ± 2.9	-36.9 ± 30	-30.8 ± 17

Next part

SMILES | robust z score of cell number ([1]; siRNA: siRpgrip1l) | robust z score of cell number ([1]; siRNA: siScr) | robust z score of cilia incidence [2] | robust z score of cilia incidence [3]
COc1ccc(CCN(C)CCc2ccc(OC)c(OC)c2)cc1OC [YS-035 hydrochloride] | 7.53 ± 14 | -3.98 ± 1.8 | -0.591 ± 1.4 | -8.64 ± 9.2
CSc1nc(NC2CCCC2)c([N+](=O)[O-])c(NC2CCCC2)n1 | -19.4 ± 15 | -33.9 ± 23 | -1.57 ± 4.7 | -19.1 ± 22
CSc1ccc2c(c1)C(N1CCN(C)CC1)Cc1ccccc1S2 (stereo not given) [Methiothepin maleate] | -121 ± 86 | -161 ± 140 | -16 ± 0.79 | -61.7 ± 10
Cn1cc(/C=C2\C(=O)Nc3cccnc32)c2ccccc21 | -11.8 ± 2.1 | -18.4 ± 16 | -1.26 ± 2.1 | -18.6 ± 15
C[C@@H]1CN(CCCn2c3ccccc3c3ccccc32)C[C@H](C)N1 [Rimcazole dihydrochloride] | -79 ± 80 | -16.9 ± 4.7 | -14.6 ± 5.2 | -394 ± 220
CC1(c2ccccc2)OC(C(=O)O)=CC1=O (stereo not given) [Acifran] | -2 ± 5.3 | 1.7 ± 1.4 | -1.85 ± 1.5 | -18.4 ± 12
COc1ccc2c(c1OC)C(=O)O[C@@H]2[C@H]1c2c(cc3c(c2OC)OCO3)CCN1C [Noscapine hydrochloride] | -6.75 ± 5.7 | -4.27 ± 1.9 | -13.8 ± 15 | -26.7 ± 12
O=S(=O)(c1ccccc1)N(CC(F)(F)F)c1ccc(C(O)(C(F)(F)F)C(F)(F)F)cc1 | -29.6 ± 15 | -27.3 ± 4.7 | -52 ± 38 | -32.7 ± 19
Cc1cccc(/C=C/c2ccccc2)n1 | -7.61 ± 6.4 | -2.59 ± 0.17 | -0.211 ± 1.4 | -15.2 ± 0.84
CCCCNC(=O)[C@@H]1Cc2ccccc2N1C(=O)[C@@H](N)CC [Butabindide oxalate] | -38.1 ± 30 | -9.11 ± 4.8 | -15.3 ± 22 | -24.9 ± 24
CCCCCCCCCCCCCCCC(=O)C(F)(F)F | -14.9 ± 16 | 2.06 ± 3 | 1.56 ± 2.9 | -137 ± 88
Cc1cccc(C)c1OCC(C)N (stereo not given) [Mexiletine hydrochloride] | -3.12 ± 3.2 | -23.1 ± 25 | -3.18 ± 5.8 | -12.4 ± 4.8
O=[N+]([O-])c1cccc2c(Br)[nH]nc12 [3-Bromo-7-nitroindazole] | -2.52 ± 1.4 | -1.37 ± 1.8 | 3.5 ± 0.64 | -4.22 ± 1.4
CCCn1c(=O)c2[nH]c(-c3ccccc3)nc2n(CCC)c1=O [1,3-Dipropyl-8-phenylxanthine] | -30.6 ± 31 | -19.7 ± 8.8 | -2.45 ± 3.2 | -9.17 ± 5.3
N=C(N)NC(=O)Cc1c(Cl)cccc1Cl [Guanfacine hydrochloride] | -0.928 ± 2.2 | -8.65 ± 3 | -0.00581 ± 6.7 | -12.2 ± 3.3
CC(C)C[C@H](NC(=O)[C@@H](O)[C@H](N)Cc1ccccc1)C(=O)O [Bestatin] | -2.33 ± 2.1 | -0.119 ± 0.46 | 4.34 ± 3.5 | -22.6 ± 22
COCCOC(=O)C1=C(C)NC(C)=C(C(=O)OC(C)C)C1c1cccc([N+](=O)[O-])c1 (stereo not given) [Nimodipine] | -11 ± 9.3 | -20.1 ± 25 | 1.09 ± 0.52 | -2.29 ± 5.2
C[C@@H]1C[C@H]2[C@@H]3CCC4=CC(=O)C=C[C@]4(C)[C@@]3(F)[C@@H](O)C[C@]2(C)[C@@]1(O)C(=O)CO [Dexamethasone] | -30.4 ± 28 | -4.45 ± 2.2 | -1.85 ± 2.5 | -18.1 ± 0.3
CN1c2cc3c(cc2N=C(c2ccc(C(=O)O)cc2)c2ccccc21)C(C)(C)CCC3(C)C | -40.3 ± 26 | -53.3 ± 26 | -35.3 ± 18 | -58.8 ± 11
CCC1(c2ccccc2)C(=O)NCNC1=O [Primidone] | -1.27 ± 1.1 | -3.53 ± 0.54 | 0.691 ± 0.77 | -3.54 ± 2.4
